Values are the deposited “Percent Effect”, in %.
The record does not define 0% and 100%; most values in the screen are far below 50% and negative numbers occur (in some assays of this library far below -100).
The compounds are a random part of those screened.
A dash means the value is not listed here; it may have been measured.

By UniProt entry, the sequences of proteins in these tests, tags left out. Residues count along the entry.
UniProt Q8IDJ8, 1-583: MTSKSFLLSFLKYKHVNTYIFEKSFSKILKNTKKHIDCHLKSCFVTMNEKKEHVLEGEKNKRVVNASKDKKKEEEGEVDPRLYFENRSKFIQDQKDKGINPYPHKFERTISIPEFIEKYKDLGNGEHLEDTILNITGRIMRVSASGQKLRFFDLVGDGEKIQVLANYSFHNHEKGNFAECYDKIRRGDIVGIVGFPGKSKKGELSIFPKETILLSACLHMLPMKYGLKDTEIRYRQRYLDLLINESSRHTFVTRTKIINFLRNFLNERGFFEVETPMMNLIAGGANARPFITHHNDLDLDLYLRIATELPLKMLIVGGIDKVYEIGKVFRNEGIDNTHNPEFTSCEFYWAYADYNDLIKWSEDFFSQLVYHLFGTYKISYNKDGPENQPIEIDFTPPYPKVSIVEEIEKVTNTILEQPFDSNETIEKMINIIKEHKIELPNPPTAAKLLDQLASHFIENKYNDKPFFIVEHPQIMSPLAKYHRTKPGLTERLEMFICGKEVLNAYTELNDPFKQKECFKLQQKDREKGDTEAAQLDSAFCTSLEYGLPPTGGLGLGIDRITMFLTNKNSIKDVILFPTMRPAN

Toxoplasma: 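Assay of Toxoplasma gondii numbers, read through their beta-galactosidase reporter with a colour substrate. Compounds at 10 µM. Higher reads as fewer parasites (inferred from which compounds were picked for retests). Size under these conditions: about 67,000 compounds, about 260 of them at 50% or above in at least one test.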
T. brucei: 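Whole-parasite assay of Trypanosoma brucei over 72 hours; the read-out is not stated. Tested at 30 µM. Higher reads as stronger inhibition (inferred: compounds with an IC50 in retests scored well above the rest). Values scatter widely below zero; nearly all retest evidence comes from the higher of the two concentrations used. Of about 64,000 compounds tested this way, about 940 (1.5%) reached 50% or more in at least one test.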
Leishmania in macrophages: 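Cell assay of Leishmania donovani living inside macrophages; the read-out is not stated. Concentration: 30 µM. Higher reads as stronger inhibition (inferred: compounds with an IC50 in retests scored well above the rest). Size under these conditions: about 69,000 compounds, about 1,000 of them at 50% or above in at least one test.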
PfKRS1: 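Enzyme assay of the cytosolic lysyl-tRNA synthetase in 384-well plates, read by luminescence. Target: Lysine-tRNA ligase, Plasmodium falciparum 3D7 (UniProt Q8IDJ8). Tested at 30 µM. Higher reads as stronger inhibition, judged from the few compounds that gave an IC50. Size under these conditions: about 69,000 compounds, about 49 of them at 50% or above in at least one test.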

For O=C(O)C(F)(F)F.[H][C@@]12C[C@@H](C)O[C@]1([H])CN(Cc1nccs1)C2 the result was Toxoplasma: 9.096%; T. brucei: -52.29%; Leishmania in macrophages: 32.59%.
For c1cnc(N2CC3(CCN(C4CCOCC4)CC3)c3ccccc32)nc1 the result was PfKRS1: -2.934%.
For CN1C(Cn2cccn2)C[C@@H]2CN(C(=O)c3cccc(C#N)c3)CC[C@@H]21 (stereo partly drawn) the result was PfKRS1: 1.156%.
For Cc1nnc2ccc(N3CCC4(CCOC4)C3)nn12 (stereo not drawn) the result was Toxoplasma: -4.609%; T. brucei: -17.43%; Leishmania in macrophages: 21.04%; PfKRS1: 3.729%.
For CN(C)C(=O)[C@H]1C[C@@H]2CN(c3ncccn3)C[C@H]1O2 the result was PfKRS1: 4.465%.
For CC(=O)NC1CCN(c2nc(N(C)C)nc3c2CCCC3)CC1 the result was Toxoplasma: 1.405%; T. brucei: -2.722%; Leishmania in macrophages: -10.58%; PfKRS1: 1.943%.
For Cc1ccc(C(=O)N2CCOCC3(CCN(C4CCOCC4)C3)C2)o1.O=C(O)C(F)(F)F (stereo not drawn) the result was Toxoplasma: 18.12%; T. brucei: -43.12%; Leishmania in macrophages: 38.2%.
For O=C(O)C(F)(F)F.O=C(O)C(F)(F)F.[H][C@@]12COC[C@]1(C(=O)NC1CC(F)(F)C1)CN(Cc1cccnc1)C2 the result was Toxoplasma: -30.01%; T. brucei: -16.72%; Leishmania in macrophages: 24.56%.
For COCC(=O)NS(=O)(=O)c1ccc(F)c(F)c1 the result was Toxoplasma: 1.89%; T. brucei: -0.6992%; Leishmania in macrophages: 20.4%; PfKRS1: 3.311%.
For Fc1ccc(CN2CCCC2Cn2cccn2)c2ncccc12 (stereo not drawn) the result was Toxoplasma: 4.2%; T. brucei: 7.191%; Leishmania in macrophages: 33.08%; PfKRS1: 7.275%.
For CCc1noc(C)c1C(=O)N1CCCC1c1c(C)nn(C)c1OC (stereo not drawn) the result was T. brucei: 17.88%; Leishmania in macrophages: 24.8%; PfKRS1: 6.672%.
For c1cncc(CO[C@H]2CO[C@@]3(CCN(Cc4ccoc4)C3)C2)c1 the result was PfKRS1: 5.563%.
For O=C(O)c1ccc(=O)n(CC(c2ccc(F)cc2)N2CCCCCC2)c1 (stereo not drawn) the result was Toxoplasma: -15.32%; T. brucei: -24.64%; Leishmania in macrophages: 27.27%; PfKRS1: -0.3984%.
For Cc1c(Br)cnn1C(C)C(=O)Nc1nncs1 (stereo not drawn) the result was Toxoplasma: -3.016%; T. brucei: -15.06%; Leishmania in macrophages: 11.52%; PfKRS1: 7.873%.
For Cc1csc(CCNC(=O)N2CCC(C(N)=O)CC2)n1 the result was Toxoplasma: -2.639%; T. brucei: -8.26%; Leishmania in macrophages: -6.847%; PfKRS1: 0.9393%.
For CNCc1ccc(OCc2ccc3c(c2)OCCO3)cc1.Cl the result was Toxoplasma: 14.53%; T. brucei: -35.77%; Leishmania in macrophages: 22.52%.
For [H][C@]12CN(CC(C)C)C(=O)[C@@]1([H])CN(S(=O)(=O)c1cccs1)C2 the result was Toxoplasma: -31.36%; T. brucei: -24.4%; Leishmania in macrophages: 1.12%.
For COCC1c2nnn(C)c2CCN1C(=O)Cc1ccccn1 (stereo not drawn) the result was Toxoplasma: 9.239%; T. brucei: -96.01%; Leishmania in macrophages: 41.99%; PfKRS1: 2.518%.

Some entries from above, unchanged:

structure	Toxoplasma	T. brucei	Leishmania in macrophages	PfKRS1
c1cnc(N2CC3(CCN(C4CCOCC4)CC3)c3ccccc32)nc1	-	-	-	-2.934%
CN(C)C(=O)[C@H]1C[C@@H]2CN(c3ncccn3)C[C@H]1O2	-	-	-	4.465%

From ChEMBL document CHEMBL3988442, “University of Dundee, Small-Polar-MMV Screening Library” (2021).